Results from patent EP1206489B1, “ORALLY ACTIVE PEPTIDES THAT PREVENT CELL DAMAGE AND DEATH” (RAMOT UNIVERSITY, AUTHORITY FOR APPLIED RESEARCH & …, priority 1999, dated 2004).
Not every detail of the peptide structures is certain; ends, links or a residue may be inferred.

How the values were obtained:
[1] = tested on: Dissociated cerebral cortical cultures; type: cell-based; details: 1 µM tetrodotoxin, 5 days; combinations in equimolar amounts
pregnant mice = assay: Fetal alcohol syndrome (FAS) model, alcohol injection at embryonic day 8, evaluation on E18; type: in vivo; details: for fetal demise rate: pretreatment 30 minutes prior to alcohol on E8, 20 µg (20 µg each for combination), injection, E18, vs alcohol group P < 0.03
AF64A-treated rats = assay: AF64A cholinotoxicity, Morris water maze; type: in vivo; details: for Morris water maze, summation of the two daily tests: 10 microgram per rat per day under the tongue

| Structure (SMILES) | survival-promoting activity (preventing neuronal cell death associated with electrical blockade with TTX) [1] | fetal demise rate (pregnant mice) | fetal death (pregnant mice; mouse, in vivo, po) | learning and memory, overall conclusion (AF64A-treated rats; D-SALLRSIPA alone, oral, 5 day testing) | Morris water maze, summation of the two daily tests (AF64A-treated rats; Day 1) | Morris water maze, summation of the two daily tests (AF64A-treated rats; Day 2) | Morris water maze, summation of the two daily tests (AF64A-treated rats; Day 5 (t-test)) |
| --- | --- | --- | --- | --- | --- | --- | --- |
| CC[C@@H](C)[C@@H](NC(=O)[C@@H](CO)NC(=O)[C@H](NC(=O)[C@H]1CCCN1C(=O)[C@@H](C)NC(=O)[C@H](N)CC(N)=O)C(C)C)C(=O)N1CCC[C@@H]1C(=O)N[C@H](CCC(N)=O)C(=O)O [D-NAP, Asn-Ala-Pro-Val-Ser-Ile-Pro-Gln] | very similar, with each exhibiting a complex dose response with two apparent maxima | significantly reduced the fetal demise rate | – | – | – | – | – |
| CC[C@@H](C)[C@@H](NC(=O)[C@@H](CO)NC(=O)[C@@H](CCCNC(=N)N)NC(=O)[C@@H](CC(C)C)NC(=O)[C@@H](CC(C)C)NC(=O)[C@@H](C)NC(=O)[C@H](N)CO)C(=O)N1CCC[C@@H]1C(=O)N[C@H](C)C(=O)O [D-SAL, Ser-Ala-Leu-Leu-Arg-Ser-Ile-Pro-Ala] | identical in both potency and efficacy | significantly reduced the fetal demise rate | found to prevent fetal death | effective on its own | P < 0.04 D-SALLRSIPA-AF64A vs. AF64A | not significantly different from either AF64A animals or control, suggesting some improvement | P < 0.04 D-SALLRSIPA-AF64A vs. AF64A |
| CC[C@H](C)[C@H](NC(=O)[C@H](CO)NC(=O)[C@@H](NC(=O)[C@@H]1CCCN1C(=O)[C@H](C)NC(=O)[C@@H](N)CC(N)=O)C(C)C)C(=O)N1CCC[C@H]1C(=O)N[C@@H](CCC(N)=O)C(=O)O [L-NAP, Asn-Ala-Pro-Val-Ser-Ile-Pro-Gln, reference compound] | very similar, with each exhibiting a complex dose response with two apparent maxima | – | – | – | – | – | – |
| CC[C@H](C)[C@H](NC(=O)[C@H](CO)NC(=O)[C@H](CCCNC(=N)N)NC(=O)[C@H](CC(C)C)NC(=O)[C@H](CC(C)C)NC(=O)[C@H](C)NC(=O)[C@@H](N)CO)C(=O)N1CCC[C@H]1C(=O)N[C@@H](C)C(=O)O [L-SAL, Ser-Ala-Leu-Leu-Arg-Ser-Ile-Pro-Ala, reference compound] | identical in both potency and efficacy | – | – | – | – | – | – |
